# According to US20260207760A1, “COMBINATIONS OF CD33 ANTIBODY DRUG CONJUGATE WITH CHEMOTHERAPEUTIC AGENTS” (Glykos Biomedical Oy, priority 2022, published 2026):
# pIC50: −log10 of the molar value.
# Assays:
# KG-1 cells = assay: Toxicity of chemotherapeutic agents, KG-1 cells (PrestoBlue viability); format: cell-based; settings: Homo sapiens, 96 h, 4 days
# Protocol: Toxicity of chemotherapeutic agents was tested with high CD33-positive KG-1 cell line (DSMZ-German Collection of Microorganisms and Cell Cultures; Cat. No. ACC 14). KG-1 cells were seeded to non-treated 96-well plate 15000 cells/well and diluted compounds were added to cells in duplicates. Dilution series (1:10) of compounds were prepared starting from 20 μM to 0.2 nM and when added to cells they diluted 2× more. Cell control was untreated cells in culture medium.
# Cells with chemotherapeutic agents were cultured for 4 days and then the viability was measured with PrestoBlue cell viability reagent according to the manufacturer's (Life Technologies) instructions. Results were calculated from 5-hour Prestoblue reaction and the percentage of viable cells was calculated by dividing the sample absorbance value with cell control value.
# HL-60 cells = assay: Toxicity assay of chemotherapeutic agents, HL-60 cells (PrestoBlue viability); format: cell-based; settings: Homo sapiens, 96 h, 4 days incubation
# Protocol: HL-60 cells (ATCC®, cat. no. CCL-240™), derived from human promyelocytic leukemia, were cultured in Iscove's Modified Dulbecco's Medium (Gibco, Life Technologies) supplemented with 20% heat inactivated FBS (Gibco, Life Technologies).
# For toxicity assay, HL-60 cells were seeded for 7500 cells/well of 96-well plate. The chemotherapeutic agents were added as 2-fold stock solutions and incubated with cells for 5 days.
# All other compounds were tested at concentrations 0.1, 1, 10, 100, 1000, and 10 000 nM. […] The percentage of viable cells was calculated by dividing the sample absorbance value with untreated cell control value and multiplying by 100%.
# All compounds were tested at concentrations of 0.1-10 000 nM.
# IC50 values were determined after average % and standard deviations were transferred to GraphPad Prism 9.1.2. Dose-response curves were generated and the IC50% values of the samples were obtained by non-linear regression analysis (Inhibitor vs. response, variable slope (four parameters)) using the software.
smiles,measurement,setting,value
CO[C@@H]1[C@H](N(C)C(=O)c2ccccc2)C[C@H]2O[C@]1(C)n1c3ccccc3c3c4c(c5c6ccccc6n2c5c31)C(=O)NC4 [Midostaurin],pIC50,KG-1 cells,6.29
same,pIC50,HL-60 cells,6.10
